# Data as given in PubChem BioAssay AID540276 (National Center for Advancing Translational Sciences (NCATS), 2011).
# “And” between values parts separate entries of the source, which are not always exact repeats. Equal entries are not always repeated. About 5,400 (1.8%) of roughly 300,000 compounds were called active. Inconclusive results, whose numbers are uncertain, are shown with a selection of clear calls. Calls come from the whole dose curve; tested in HEK293 cells. Where the call is inconclusive, the potency comes from a doubtful curve fit.
# Assay: qHTS for inhibitors of binding or entry into cells for Marburg Virus
# Conditions: Marburg virus pseudotyped entry inhibition, cell reporter; activity change, negative = inhibition: at 37.8 µM (top of the series) unless noted
# % is set by controls: 0 for no effect and ±100 for the full control effect; potency is the fitted concentration of half-maximal effect.
SMILES,Potency,"activity change, negative = inhibition"
OC(CCN1CCCCC1)(c1ccccc1)C1CC2C=CC1C2 (stereo not drawn),active: 6.51 µM,–
Cn1c(=O)c(C(=O)CSc2ccccc2)c(N)n(Cc2ccccc2)c1=O,"inconclusive: 17.8 µM [inhibitor, single point]",–
C=C(C)Cn1c(CCNC(=O)CC)nc2ccccc21,"inconclusive: 3.55 µM [activator, full curve]",–
COC(=O)C[C@H]1c2ccccc2[C@@H]2C(=C[C@@H](C)[C@H]3C(=O)N(O)C(=O)[C@H]32)N1C(=O)OC,–,inactive: 8% [at 14.2 µM]
CCc1cc2c(COC(=O)c3cccc(NS(C)(=O)=O)c3)cc(=O)oc2cc1O,"inconclusive: 28.2 µM [inhibitor, partial curve, poor fit]",–
O=C(NCCc1ccccc1F)c1cccc2cccnc12,"inconclusive: 20 µM [activator, partial curve, poor fit]",–
COc1ccc(NC(=O)C(c2ccc(C)cc2)N(C)C(=O)/C=C\c2ccc3c(c2)OCO3)cc1 (stereo not drawn),"inconclusive: 25.1 µM [inhibitor, single point]",–
CC(CCN1CCCc2nc(C)c(C)cc21)=NO[C@@H](C)CN1CCCCc2nc(C)c(C)cc21,–,inactive: -28.4% [at 14.2 µM]
COC(=O)CN(c1cccc(OC)c1)S(C)(=O)=O,–,inactive: 19.8%
CC(C)(C)NC(=O)NC(=O)COC(=O)CCC1CCCC1,"inconclusive: 6.31 µM [inhibitor, full curve]",–
Cc1nc([N+](=O)[O-])c(Br)n1CC(=O)c1ccc2ccccc2c1,active: 17.8 µM,–
Cc1ccc2c(c1)CCCN2C(=O)CCc1nc2ccccc2c(=O)[nH]1,"inconclusive: 1.58 µM [inhibitor, full curve, poor fit]",–
O=c1c2ccccc2nc(SCC2CCCCO2)n1-c1ccccc1 (stereo not drawn),–,inactive: -1.28%
O=C(N/N=C/c1ccccc1[N+](=O)[O-])c1cccs1,"inconclusive: 14.1 µM [activator, partial curve, poor fit]",–
CCn1c(SCc2ccccc2Cl)nc2ccccc21,–,inactive: -21.5% [at 46.1 µM]
CC(C)c1ccc(NC2CCCN(C(=O)c3ccnc(Cl)c3)C2)cc1 (stereo not drawn),–,inactive: 15.8% [at 46.1 µM]
CCOc1ccc(CCNc2ncnc3onc(-c4ccc(Cl)cc4)c23)cc1OCC,active: 7.94 µM,–
COc1ccc(NC(=O)CN(C)C(=O)CNC(=O)c2ccc(C)s2)cc1,"inconclusive: 5.62 µM [activator, full curve, poor fit]",–
O=C(CCSc1ccccc1)N1CCN(c2ccccc2)CC1,–,inactive: 6.78% [at 46.1 µM]
CCOC(=O)C1=C(C)NC(=O)NC1c1ccc(Br)o1 (stereo not drawn),"inconclusive: 1.26 µM [inhibitor, single point]",–
CCc1ccc(OC(C)c2nc(-c3ccc(-n4cccc4)cc3)no2)cc1 (stereo not drawn),–,inactive: -7.78% [at 46.1 µM]
O=C(O)CSc1cccc[n+]1[O-],–,inactive: 1.95%
C=CC[n+]1cccc(-c2cc3ccc(C)cc3[nH]2)c1,–,inactive: 1.35% [at 46.1 µM]
Cc1ccc(NC(=O)/C=C\C(=O)NCC(=O)O)cc1C,"inconclusive: 35.5 µM [inhibitor, single point]",–
CCN(CC)C(=O)[C@H]1CC(CC(=O)NCc2cccc(C(F)(F)F)c2)C(=O)N2CCc3c([nH]c4ccc(OC)cc34)[C@]12C (stereo partly drawn),–,inactive: 1.61%

# Taken from above.
# Potency, COc1ccc(NC(=O)C(c2ccc(C)cc2)N(C)C(=O)/C=C\c2ccc3c(c2)OCO3)cc1 (stereo not drawn) reads inconclusive: 25.1 µM [inhibitor, single point]
# activity change, negative = inhibition, COC(=O)CN(c1cccc(OC)c1)S(C)(=O)=O reads inactive: 19.8%

# Remaining list, next part:

SMILES,Potency,"activity change, negative = inhibition"
CSc1nc2ccc(NC(=O)c3ccco3)cc2s1,"inconclusive: 3.16 µM [activator, partial curve, poor fit]",–
Oc1ccc(CNc2ccc(F)cc2)c2cccnc12,"inconclusive: 18.3 µM [inhibitor, partial curve, poor fit]",–
CCOC(=O)C1(CCOC)CCN(Cc2nc(C(C)C)cs2)CC1,"inconclusive: 22.4 µM [activator, partial curve, poor fit]",–
Cc1ccc2nc(-c3ccc(O)cc3)oc2c1,active: 5.62 µM,–
O=C(CSC1=NS(=O)(=O)c2ccccc2N1)NCCc1ccccc1,–,inactive: -2.03%
COc1cccc(NC(=O)COC(=O)CCn2c(C)csc2=O)c1,–,inactive: 26.8%
CCOc1ccccc1NC(=O)CSc1nnc(-c2cnccn2)n1CC,–,inactive: -27.4%
COc1cccc(NC(=O)CSc2nc3ccc(NC(=O)c4cccs4)cc3s2)c1,"inconclusive: 1.26 µM [activator, partial curve, poor fit]",–
COc1ccc(/C=N/NC(=O)C(=O)N2CCCC2)cc1,–,inactive: 30% [at 46.1 µM]
Cc1ccccc1N1CC(C(=O)Nc2nnc(SCC(=O)Nc3nccs3)s2)CC1=O (stereo not drawn),"inconclusive: 1.03 µM [inhibitor, partial curve, poor fit]",–
Cc1ncc([N+](=O)[O-])n1CCO,–,inactive: 13.2%
CCN(CC)c1ccc(/C=N/N2CCOCC2)cc1,"inconclusive: 29.1 µM [inhibitor, single point]",–
O=C1C2=C(C(=O)c3ccccc31)[C@H]1O[C@](c3ccsc3)(Cc3ccccc31)O2,–,inactive: -7.67% [at 14.2 µM]
CCCCc1c(C)c(C#N)c2[nH]c3ccccc3n2c1=O,"inconclusive: 8.91 µM [inhibitor, partial curve, poor fit]",–
O=C(NC1CCCCCC1)c1ccc(OCC2CCCO2)cc1 (stereo not drawn),"inconclusive: 35.5 µM [inhibitor, single point]",–
CC1=C(C(=O)OC(C)C)C(c2cccs2)C(C(=O)OC(C)C)=C(C)N1,"inconclusive: 1.12 µM [inhibitor, partial curve, poor fit]",–
O=C(CSc1ccc(C(F)(F)F)cc1[N+](=O)[O-])N1CCOCC1,"inconclusive: 5.01 µM [inhibitor, partial curve, poor fit]",–
CN(C)C(=O)COc1ccc2cc(-c3ccccc3)c(=O)oc2c1,"inconclusive: 11.6 µM [activator, partial curve]",–
C/C(=N/NC(=O)CNC(=O)c1ccc2c(c1)OCO2)c1ccc2c(c1)CCCC2,"inconclusive: 12.6 µM [inhibitor, partial curve]",–
CCOc1ccccc1N(CC(=O)O)S(=O)(=O)c1ccccc1,–,inactive: 16.1%
N=C1N(/N=C/c2ccccc2)C(=Nc2ccccc2)C(=S)N1c1ccccc1,–,inactive: -12%
COc1cc(C(=S)N2CCCCC2)ccc1O,–,inactive: 14.9%
Cc1cc(C)n(C(=O)/C=C/c2cccs2)n1,–,inactive: 16.4% [at 46.1 µM]
Cc1oc2ccc(O)c(CN(C)Cc3ccccc3)c2c1C(=O)Nc1ccccc1,"inconclusive: 8.91 µM [inhibitor, partial curve, poor fit]",–
CCN(CC)CC#CCOC(=O)C(O)(c1ccccc1)C1CCCCC1 (stereo not drawn),"inconclusive: 29.1 µM [inhibitor, single point] and inconclusive: 17.8 nM [inhibitor, full curve, poor fit] and inconclusive: 23.1 µM [inhibitor, partial curve, poor fit]",–

# Entries of single compounds from above:
# O=C(CCSc1ccccc1)N1CCN(c2ccccc2)CC1 in the list: activity change, negative = inhibition: inactive: 6.78% [at 46.1 µM]
# CCOc1ccc(CCNc2ncnc3onc(-c4ccc(Cl)cc4)c23)cc1OCC in the list: Potency: active: 7.94 µM
# CCN(CC)c1ccc(/C=N/N2CCOCC2)cc1 in the list: Potency: inconclusive: 29.1 µM [inhibitor, single point]

# (further entries)

SMILES,Potency,"activity change, negative = inhibition"
O=C(O)c1ccc(CSc2nnc(COc3ccccc3)o2)cc1,–,inactive: -3.31% [at 46.1 µM]
Cn1c(SCC(=O)N2c3ccccc3Sc3ccc(Cl)cc32)nnc1-c1ccco1,"inconclusive: 9.2 µM [inhibitor, partial curve, poor fit]",–
COc1ccc(-c2nn(-c3ccccc3)cc2/C=N/Nc2cccc(C(=O)O)c2)cc1,–,inactive: -14%
CSc1nnc(NC(=O)c2ccc(S(=O)(=O)N(C)C)cc2)s1,"inconclusive: 5.62 µM [inhibitor, full curve]",–
CCS(=O)(=O)N1Cc2ccccc2CC1C(=O)Nc1ccc(OC)c(OC)c1 (stereo not drawn),–,inactive: 10.1%
CC1(C(=O)OCC(=O)c2c[nH]c3ccccc23)CC1(Cl)Cl (stereo not drawn),–,inactive: -4.08%
O=C(COc1ccc(F)cc1)OCCN1CCOCC1,"inconclusive: 8.91 µM [activator, partial curve]",–
CCOc1ccc(N=C(C)C2=C(O)c3ccccc3C2=O)cc1,"inconclusive: 7.08 µM [activator, partial curve, poor fit]",–
c1ccc(-c2nnc(SCc3nc4ccccc4[nH]3)o2)cc1,"inconclusive: 0.651 µM [inhibitor, partial curve, poor fit]",–
CC1=C[C@H]2c3ccccc3C[C@H]2CO[C@]12C(=O)N(Cc1ccc(Br)cc1)c1ccccc12,"inconclusive: 0.168 µM [inhibitor, full curve, poor fit]",–
Cc1noc(C)c1COc1cccc(C(=O)OC(C)C(=O)Nc2ccc3c(c2)OCO3)c1 (stereo not drawn),"inconclusive: 7.3 µM [inhibitor, partial curve]",–
Cc1[nH]nc2c1C(CC(C)C)C(C#N)=C(N)O2 (stereo not drawn),"inconclusive: 6.31 µM [inhibitor, single point]",–
COc1ccc(C(=O)OCC(=O)NC2CC2)cc1S(=O)(=O)Nc1ccc(C)cc1,–,inactive: 4.45%
Cc1cccc(C(=O)Nc2sc3c(c2C(=O)N2CCCCC2)CCC(C)C3)c1 (stereo not drawn),–,inactive: -9.58% [at 46.1 µM]
CCOC(=O)CCCc1c[nH]c2ccccc12,–,inactive: -18.2%
Cc1ccc2c(c1)[C@H]1CN(C)CC[C@@H]1N2C(=O)Nc1cccc(C(F)(F)F)c1,"inconclusive: 35.5 µM [inhibitor, single point]",–
O=C(NC12CC3CC(CC(C3)C1)C2)c1ccc(-c2ccc(Br)cc2)o1,–,inactive: -14.1%
S=C(Nc1cccc2ccccc12)NC1CCCCC1,"inconclusive: 22.4 µM [inhibitor, single point]",–
O=C(NC1CC1)c1cccc(Nc2ccc(-c3ccc4c(c3)OCCO4)nn2)c1,"inconclusive: 29.1 µM [inhibitor, single point]",–
COc1ccc(-n2cc(CNCc3cnc4ccccn34)c(-c3cccc(F)c3)n2)cc1,"inconclusive: 8.91 µM [inhibitor, partial curve, poor fit]",–
Cc1ccc(CN(Cc2ccco2)C(=S)Nc2ccccc2C)cc1,"inconclusive: 22.4 µM [inhibitor, partial curve, poor fit]",–
O=C(Nc1ccc2nc[nH]c2c1)c1ccco1,–,inactive: 17%
CN1CCN(C2=Cc3ccccc3Sc3cc(F)ccc32)CC1,"inconclusive: 35.5 µM [inhibitor, single point]",–
